According to US20160031951A1:
These are yes or no findings as the source states them, for the method shown. Some entries that bind do so weakly or less than the wild type.

Sequences of proteins named here, by UniProt entry; tags and fusion partners are left off. Residues count along the entry.
UniProt O95477: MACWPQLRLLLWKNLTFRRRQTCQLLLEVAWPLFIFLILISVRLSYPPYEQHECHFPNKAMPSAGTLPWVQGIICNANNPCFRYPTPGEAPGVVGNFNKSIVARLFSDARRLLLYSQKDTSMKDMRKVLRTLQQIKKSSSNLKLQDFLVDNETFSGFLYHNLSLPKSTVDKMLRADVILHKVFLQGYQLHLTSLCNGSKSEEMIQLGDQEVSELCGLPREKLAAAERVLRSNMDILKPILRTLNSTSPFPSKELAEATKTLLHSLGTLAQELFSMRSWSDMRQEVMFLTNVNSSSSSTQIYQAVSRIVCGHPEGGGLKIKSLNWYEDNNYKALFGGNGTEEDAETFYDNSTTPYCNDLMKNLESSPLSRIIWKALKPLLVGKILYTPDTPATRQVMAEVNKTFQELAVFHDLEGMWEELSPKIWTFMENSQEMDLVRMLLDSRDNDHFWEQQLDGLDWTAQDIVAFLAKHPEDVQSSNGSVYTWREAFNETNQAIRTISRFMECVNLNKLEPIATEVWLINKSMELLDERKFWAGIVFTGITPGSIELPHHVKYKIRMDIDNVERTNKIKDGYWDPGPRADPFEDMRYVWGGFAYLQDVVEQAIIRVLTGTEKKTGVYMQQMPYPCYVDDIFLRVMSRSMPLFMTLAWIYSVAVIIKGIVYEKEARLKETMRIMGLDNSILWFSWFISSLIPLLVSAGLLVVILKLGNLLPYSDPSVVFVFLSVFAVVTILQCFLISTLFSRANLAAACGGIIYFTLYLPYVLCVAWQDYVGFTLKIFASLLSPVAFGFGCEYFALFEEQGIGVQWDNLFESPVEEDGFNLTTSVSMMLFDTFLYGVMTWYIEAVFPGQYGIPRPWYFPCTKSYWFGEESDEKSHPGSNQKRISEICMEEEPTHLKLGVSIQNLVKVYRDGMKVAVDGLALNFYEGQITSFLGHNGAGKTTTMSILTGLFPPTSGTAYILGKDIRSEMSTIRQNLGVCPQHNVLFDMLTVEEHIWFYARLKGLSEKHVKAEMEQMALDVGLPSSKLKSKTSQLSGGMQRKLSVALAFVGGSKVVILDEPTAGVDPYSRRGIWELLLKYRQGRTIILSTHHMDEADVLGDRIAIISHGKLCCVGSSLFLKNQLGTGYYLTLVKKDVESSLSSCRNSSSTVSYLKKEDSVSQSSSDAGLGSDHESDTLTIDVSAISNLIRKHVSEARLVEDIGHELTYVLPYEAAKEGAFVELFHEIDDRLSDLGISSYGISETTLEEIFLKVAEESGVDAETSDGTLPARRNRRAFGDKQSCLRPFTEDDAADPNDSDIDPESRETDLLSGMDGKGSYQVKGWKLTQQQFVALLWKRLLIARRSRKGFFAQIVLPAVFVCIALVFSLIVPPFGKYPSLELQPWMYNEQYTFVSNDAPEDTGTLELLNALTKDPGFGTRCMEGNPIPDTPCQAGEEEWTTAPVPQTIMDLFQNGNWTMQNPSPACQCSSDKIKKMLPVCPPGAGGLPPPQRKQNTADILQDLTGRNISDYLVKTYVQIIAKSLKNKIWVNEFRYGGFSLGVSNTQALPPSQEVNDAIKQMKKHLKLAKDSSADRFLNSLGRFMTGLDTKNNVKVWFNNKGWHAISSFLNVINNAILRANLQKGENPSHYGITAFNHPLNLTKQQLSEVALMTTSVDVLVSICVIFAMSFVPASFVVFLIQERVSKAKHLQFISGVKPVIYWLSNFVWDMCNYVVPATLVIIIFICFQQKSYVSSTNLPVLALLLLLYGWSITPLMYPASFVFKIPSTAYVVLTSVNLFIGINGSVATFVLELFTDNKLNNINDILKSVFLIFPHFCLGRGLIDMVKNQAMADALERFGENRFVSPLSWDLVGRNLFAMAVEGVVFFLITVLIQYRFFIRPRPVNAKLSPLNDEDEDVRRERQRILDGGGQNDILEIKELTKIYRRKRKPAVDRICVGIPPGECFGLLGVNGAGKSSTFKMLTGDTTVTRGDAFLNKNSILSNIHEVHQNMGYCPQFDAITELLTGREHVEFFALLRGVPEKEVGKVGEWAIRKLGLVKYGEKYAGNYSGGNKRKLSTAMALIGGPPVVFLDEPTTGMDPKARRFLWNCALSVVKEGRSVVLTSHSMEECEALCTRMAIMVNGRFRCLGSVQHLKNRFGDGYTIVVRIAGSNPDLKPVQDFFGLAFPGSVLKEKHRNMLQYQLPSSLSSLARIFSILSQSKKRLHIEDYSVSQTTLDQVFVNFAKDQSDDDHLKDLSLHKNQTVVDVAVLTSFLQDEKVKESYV
UniProt P02647, residues 25-267: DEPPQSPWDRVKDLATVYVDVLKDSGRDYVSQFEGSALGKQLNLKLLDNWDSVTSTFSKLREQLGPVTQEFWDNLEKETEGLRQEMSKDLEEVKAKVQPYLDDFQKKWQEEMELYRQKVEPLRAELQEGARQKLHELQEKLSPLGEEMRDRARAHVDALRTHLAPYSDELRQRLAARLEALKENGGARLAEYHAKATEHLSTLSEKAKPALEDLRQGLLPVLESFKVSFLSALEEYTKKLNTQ

Molecular target: ABCA1 on BHK cells stably transfected with ABCA1 (UniProt O95477)
Assay: crosslinking assay and western blot with antibodies to peptide or apoA-I; BHK cells stably transfected with ABCA1

binding: binds
Substance: apolipoprotein A-I (from UniProt P02647 25-267) (ligand)
